The results in this text go back to article doi:10.1101/348953.

Sequences of proteins named here, by UniProt entry; tags and fusion partners are left off. A change or cut given only in a name is not applied to a line headed by its entry.
UniProt P15116: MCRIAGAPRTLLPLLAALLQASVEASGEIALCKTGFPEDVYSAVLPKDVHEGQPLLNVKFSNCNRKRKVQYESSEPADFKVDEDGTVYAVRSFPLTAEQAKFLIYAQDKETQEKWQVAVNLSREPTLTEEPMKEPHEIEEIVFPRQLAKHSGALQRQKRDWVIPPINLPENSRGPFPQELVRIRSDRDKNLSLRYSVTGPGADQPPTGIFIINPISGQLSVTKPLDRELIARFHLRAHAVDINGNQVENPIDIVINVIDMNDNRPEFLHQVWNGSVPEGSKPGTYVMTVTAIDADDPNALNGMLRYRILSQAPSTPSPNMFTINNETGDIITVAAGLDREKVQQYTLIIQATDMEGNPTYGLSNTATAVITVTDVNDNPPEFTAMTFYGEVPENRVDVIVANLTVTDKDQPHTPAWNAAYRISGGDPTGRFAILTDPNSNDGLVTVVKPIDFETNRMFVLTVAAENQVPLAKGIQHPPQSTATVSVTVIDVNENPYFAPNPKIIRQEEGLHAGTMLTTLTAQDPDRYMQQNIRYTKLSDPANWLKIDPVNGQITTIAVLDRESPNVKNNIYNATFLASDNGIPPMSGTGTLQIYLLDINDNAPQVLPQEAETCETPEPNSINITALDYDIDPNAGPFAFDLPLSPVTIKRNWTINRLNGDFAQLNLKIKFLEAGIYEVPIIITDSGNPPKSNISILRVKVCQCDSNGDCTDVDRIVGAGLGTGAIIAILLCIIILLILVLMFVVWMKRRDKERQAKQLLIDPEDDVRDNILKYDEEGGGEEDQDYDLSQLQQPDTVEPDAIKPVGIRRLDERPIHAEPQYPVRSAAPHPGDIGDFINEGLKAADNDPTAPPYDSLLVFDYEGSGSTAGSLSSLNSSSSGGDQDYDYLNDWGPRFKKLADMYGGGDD
UniProt Q8BPM0: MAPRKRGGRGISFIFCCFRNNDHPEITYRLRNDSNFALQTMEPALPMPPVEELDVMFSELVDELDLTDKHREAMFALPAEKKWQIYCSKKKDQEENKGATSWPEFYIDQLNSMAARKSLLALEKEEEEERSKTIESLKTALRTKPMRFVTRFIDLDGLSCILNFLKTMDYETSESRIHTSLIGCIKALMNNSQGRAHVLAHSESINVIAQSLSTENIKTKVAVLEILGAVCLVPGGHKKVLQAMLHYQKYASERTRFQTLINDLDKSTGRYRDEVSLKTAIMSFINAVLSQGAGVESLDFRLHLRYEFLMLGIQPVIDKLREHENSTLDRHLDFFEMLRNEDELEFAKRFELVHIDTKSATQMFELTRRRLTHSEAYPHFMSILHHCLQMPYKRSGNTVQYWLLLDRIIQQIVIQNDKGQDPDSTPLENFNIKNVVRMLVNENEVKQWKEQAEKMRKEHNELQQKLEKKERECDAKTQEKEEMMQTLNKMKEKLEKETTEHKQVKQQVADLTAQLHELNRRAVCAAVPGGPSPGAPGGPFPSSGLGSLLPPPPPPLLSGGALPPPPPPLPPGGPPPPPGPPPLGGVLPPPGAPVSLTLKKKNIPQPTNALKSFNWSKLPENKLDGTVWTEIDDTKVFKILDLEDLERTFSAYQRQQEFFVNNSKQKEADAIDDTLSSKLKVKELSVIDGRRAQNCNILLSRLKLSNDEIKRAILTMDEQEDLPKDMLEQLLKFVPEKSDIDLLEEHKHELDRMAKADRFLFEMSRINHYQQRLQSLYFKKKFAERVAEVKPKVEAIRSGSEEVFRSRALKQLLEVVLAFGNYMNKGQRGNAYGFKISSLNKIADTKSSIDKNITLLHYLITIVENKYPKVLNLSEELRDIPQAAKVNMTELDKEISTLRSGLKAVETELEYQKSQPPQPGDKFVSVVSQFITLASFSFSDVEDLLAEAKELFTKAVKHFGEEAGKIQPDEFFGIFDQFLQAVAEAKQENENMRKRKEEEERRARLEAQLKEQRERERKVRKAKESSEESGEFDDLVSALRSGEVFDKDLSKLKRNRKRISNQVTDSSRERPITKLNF
UniProt Q9JKS4: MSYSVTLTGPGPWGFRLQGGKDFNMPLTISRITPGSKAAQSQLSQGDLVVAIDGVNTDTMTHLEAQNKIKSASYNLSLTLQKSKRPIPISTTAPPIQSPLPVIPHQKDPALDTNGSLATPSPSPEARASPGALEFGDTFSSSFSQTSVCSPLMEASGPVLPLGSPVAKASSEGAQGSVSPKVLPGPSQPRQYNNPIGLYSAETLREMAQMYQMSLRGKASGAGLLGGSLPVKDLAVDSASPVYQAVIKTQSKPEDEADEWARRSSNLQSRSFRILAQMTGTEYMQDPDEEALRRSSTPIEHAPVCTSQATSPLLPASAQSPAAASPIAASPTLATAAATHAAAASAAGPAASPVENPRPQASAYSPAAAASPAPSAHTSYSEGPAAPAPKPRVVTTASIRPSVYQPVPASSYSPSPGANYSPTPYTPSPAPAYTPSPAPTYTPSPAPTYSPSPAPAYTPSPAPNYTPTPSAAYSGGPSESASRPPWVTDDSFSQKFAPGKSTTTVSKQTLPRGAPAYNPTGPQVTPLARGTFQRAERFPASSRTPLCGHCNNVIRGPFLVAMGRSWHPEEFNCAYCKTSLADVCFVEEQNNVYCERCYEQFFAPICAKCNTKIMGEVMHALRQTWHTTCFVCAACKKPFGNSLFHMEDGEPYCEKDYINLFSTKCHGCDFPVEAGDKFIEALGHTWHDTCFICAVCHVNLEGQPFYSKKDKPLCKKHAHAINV
UniProt P26231: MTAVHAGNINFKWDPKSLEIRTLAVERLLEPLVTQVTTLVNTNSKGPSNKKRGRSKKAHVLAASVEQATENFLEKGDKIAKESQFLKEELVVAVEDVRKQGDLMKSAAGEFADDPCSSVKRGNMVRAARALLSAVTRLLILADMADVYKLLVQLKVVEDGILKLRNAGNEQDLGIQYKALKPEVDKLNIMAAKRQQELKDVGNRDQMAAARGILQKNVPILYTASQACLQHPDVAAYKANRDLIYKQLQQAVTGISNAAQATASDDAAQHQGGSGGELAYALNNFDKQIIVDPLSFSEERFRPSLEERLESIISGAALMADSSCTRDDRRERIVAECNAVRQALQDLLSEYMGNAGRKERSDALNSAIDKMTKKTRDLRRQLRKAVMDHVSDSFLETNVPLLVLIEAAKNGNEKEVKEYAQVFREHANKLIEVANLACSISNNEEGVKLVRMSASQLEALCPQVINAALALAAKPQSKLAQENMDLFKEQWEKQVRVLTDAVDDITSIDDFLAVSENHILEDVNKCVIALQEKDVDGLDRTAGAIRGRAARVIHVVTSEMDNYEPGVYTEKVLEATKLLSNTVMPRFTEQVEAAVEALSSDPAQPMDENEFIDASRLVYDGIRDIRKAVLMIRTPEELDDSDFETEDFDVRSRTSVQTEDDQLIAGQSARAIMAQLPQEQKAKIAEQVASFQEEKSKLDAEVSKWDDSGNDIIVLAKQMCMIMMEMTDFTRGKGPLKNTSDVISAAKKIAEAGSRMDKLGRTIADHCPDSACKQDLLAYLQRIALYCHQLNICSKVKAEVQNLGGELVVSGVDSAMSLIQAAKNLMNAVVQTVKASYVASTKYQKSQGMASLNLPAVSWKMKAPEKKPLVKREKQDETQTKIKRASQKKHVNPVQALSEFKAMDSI
UniProt Q64727: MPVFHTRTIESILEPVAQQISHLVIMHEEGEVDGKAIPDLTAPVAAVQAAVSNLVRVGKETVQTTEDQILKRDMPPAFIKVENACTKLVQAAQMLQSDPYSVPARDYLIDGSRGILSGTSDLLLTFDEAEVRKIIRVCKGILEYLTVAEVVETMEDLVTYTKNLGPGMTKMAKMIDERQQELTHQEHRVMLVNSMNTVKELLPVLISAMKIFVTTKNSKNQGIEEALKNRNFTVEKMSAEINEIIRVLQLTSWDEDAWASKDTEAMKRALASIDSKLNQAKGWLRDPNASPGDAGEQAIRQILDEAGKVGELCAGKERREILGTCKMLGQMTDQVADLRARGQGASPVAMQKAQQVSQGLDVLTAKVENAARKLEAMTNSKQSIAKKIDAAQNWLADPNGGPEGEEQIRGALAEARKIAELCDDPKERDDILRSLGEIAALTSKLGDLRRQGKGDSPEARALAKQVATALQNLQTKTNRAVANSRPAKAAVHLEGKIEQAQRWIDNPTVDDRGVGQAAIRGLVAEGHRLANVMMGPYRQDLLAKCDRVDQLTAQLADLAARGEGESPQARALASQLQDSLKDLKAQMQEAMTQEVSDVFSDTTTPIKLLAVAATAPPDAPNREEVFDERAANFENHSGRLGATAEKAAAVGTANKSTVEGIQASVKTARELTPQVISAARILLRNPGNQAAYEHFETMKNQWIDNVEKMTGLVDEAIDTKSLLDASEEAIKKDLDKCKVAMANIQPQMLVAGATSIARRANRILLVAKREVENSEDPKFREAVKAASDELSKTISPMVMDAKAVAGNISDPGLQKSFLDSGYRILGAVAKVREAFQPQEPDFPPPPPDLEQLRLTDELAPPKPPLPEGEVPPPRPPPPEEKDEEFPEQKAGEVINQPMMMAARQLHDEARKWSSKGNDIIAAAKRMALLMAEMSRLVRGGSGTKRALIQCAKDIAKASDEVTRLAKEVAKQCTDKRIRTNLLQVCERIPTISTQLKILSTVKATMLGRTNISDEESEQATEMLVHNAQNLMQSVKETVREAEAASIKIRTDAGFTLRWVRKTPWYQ
UniProt Q60598: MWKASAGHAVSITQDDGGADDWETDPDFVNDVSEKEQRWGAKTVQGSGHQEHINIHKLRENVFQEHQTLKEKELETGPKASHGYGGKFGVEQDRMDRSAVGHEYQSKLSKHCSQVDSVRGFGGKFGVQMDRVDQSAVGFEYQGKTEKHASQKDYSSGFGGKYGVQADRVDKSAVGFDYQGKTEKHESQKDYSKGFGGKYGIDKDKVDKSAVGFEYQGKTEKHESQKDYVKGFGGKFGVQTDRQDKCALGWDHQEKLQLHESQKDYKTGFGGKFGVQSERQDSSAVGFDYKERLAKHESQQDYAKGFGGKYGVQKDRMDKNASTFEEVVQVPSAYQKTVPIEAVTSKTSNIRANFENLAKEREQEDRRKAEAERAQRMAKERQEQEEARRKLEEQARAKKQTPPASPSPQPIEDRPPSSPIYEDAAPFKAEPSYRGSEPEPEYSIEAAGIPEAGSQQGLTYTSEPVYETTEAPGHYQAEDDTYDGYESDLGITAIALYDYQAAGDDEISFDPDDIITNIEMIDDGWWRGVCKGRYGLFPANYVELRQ
UniProt Q02248: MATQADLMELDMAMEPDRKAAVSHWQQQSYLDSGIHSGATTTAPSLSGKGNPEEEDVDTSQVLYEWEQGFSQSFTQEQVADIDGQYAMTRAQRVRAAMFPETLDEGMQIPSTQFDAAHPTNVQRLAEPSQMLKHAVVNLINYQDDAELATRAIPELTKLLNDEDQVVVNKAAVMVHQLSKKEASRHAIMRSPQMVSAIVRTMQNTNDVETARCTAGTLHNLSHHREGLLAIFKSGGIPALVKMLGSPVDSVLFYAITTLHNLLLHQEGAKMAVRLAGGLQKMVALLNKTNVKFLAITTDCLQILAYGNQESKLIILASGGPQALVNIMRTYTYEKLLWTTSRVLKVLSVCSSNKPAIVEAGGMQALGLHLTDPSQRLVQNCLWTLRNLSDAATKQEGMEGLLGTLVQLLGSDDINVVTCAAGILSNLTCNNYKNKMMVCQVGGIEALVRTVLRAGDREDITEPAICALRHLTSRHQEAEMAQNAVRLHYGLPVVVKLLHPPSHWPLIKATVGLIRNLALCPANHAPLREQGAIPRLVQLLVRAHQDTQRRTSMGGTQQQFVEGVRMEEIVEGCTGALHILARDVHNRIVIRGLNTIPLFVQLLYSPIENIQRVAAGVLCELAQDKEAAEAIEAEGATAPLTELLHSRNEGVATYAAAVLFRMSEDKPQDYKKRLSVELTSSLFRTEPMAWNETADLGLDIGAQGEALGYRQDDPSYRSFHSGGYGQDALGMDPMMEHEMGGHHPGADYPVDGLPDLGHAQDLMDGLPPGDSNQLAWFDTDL
UniProt Q9JLV1: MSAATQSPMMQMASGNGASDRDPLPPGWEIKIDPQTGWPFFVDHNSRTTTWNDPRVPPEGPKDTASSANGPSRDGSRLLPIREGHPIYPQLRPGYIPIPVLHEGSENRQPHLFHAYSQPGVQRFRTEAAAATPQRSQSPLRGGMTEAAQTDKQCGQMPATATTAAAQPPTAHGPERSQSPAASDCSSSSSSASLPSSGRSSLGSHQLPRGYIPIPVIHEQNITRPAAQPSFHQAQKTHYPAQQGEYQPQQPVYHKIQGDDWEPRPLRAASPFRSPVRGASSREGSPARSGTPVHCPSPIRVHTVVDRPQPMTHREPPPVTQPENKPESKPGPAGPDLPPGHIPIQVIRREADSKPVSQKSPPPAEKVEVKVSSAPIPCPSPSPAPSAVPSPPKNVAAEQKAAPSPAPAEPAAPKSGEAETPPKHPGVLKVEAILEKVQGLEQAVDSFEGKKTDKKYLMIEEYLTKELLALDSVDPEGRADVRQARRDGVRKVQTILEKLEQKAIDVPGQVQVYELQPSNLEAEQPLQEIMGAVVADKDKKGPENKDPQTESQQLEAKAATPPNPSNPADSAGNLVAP

Results are given in words; binding and its absence hold for the method and conditions named. Binding seen in cells or lysates may run through a third protein. A yes stands for co-enrichment or nearness to the bait. Other partners may have been found.

The chains are these.
B1: FHL1 (protein, UniProt P97447 1-280)
chain: MSEKFDCHYCRDPLQGKKYVQKDGRHCCLKCFDKFCANTCVDCRKPISADAKEVHYKNRYWHDNCFRCAKCLHPLASETFVSKDGKILCNKCATREDSPRCKGCFKAIVAGDQNVEYKGTVWHKDCFTCSNCKQVIGTGSFFPKGEDFYCVTCHETKFAKHCVKCNKAITSGGITYQDQPWHAECFVCVTCSKKLAGQRFTAVEDQYYCVDCYKNFVAKKCAGCKNPITGFGKGSSVVAYEGQSWHDYCFHCKKCSVNLANKRFVFHNEQVYCPDCAKKL
B2: PDLIM5 (protein, UniProt Q8CI51 1-591)
chain: MSNYSVSLVGPAPWGFRLQGGKDFNMPLTISSLKDGGKASQAHVRIGDVVLSIDGISAQGMTHLEAQNKIKACTGSLNMTLQRASAAAKSEPVSVQKGEPKEVVKPVPITSPAVSKVTSTTNMAYNKAPRPFGSVSSPKVTSIPSPSSAFTPAHAATSSHASPTPVAAATPLHLSASGLHVSANLSADQCSSPPNTGKPAVNVPRQPTVTSVCSESAQELAEGQRRGSQGDIKQQNGPPRKHIVERNTEFYHIPTHSDASKKRLIEDTEDWRPRTGTTQSRSFRILAQITGTEHLTESENDNTKKANSTQEPSQQPASSGASPLSASEGPESPGSSRPSVAGLRSAAAFKPVGSTSVKSPSWQRPNQAAPSTGRISNNARSSGTGASVGPPQPSDQDTLVQRAEHIPAGKRTPMCAHCNQVIRGPFLVALGKSWHPEEFNCAHCKNTMAYIGFVEEKGALYCELCYEKFFAPECGRCQRKILGEVINALKQTWHVSCFVCVACGKPIRNNVFHLEDGEPYCETDYYALFGTICRGCEFPIEAGDMFLEALGYTWHDTCFVCSVCCESLEGQTFFSKKDKPLCKKHAHSVNF
B3: Synaptopodin 2 (SYNPO2) (protein, UniProt Q91YE8 1-1087)
chain: MGTGDFICISMTGGAPWGFRLQGGKEEQQPLQVAKIRSQSKASGSGLREGDEVVSINGNPCADLTYPEVIKLMEGITDSLHLLVKRPSSGTSETLDSESETTNHQHLTHEGPMESTTLQIQQATETQSEDFFLAPVQTKVPLTEDQSNAWGYAECPKEEQAPPMLGSQEGHLVEEVILRQKAEAGQPGHVVELQLSLSKERHQCTSGPIVTLQGNDKSTSPDPDWSSQLERTVHINSIPAPEKADTSLTSSTSSGRELRVIQGRDPGGAGLPQVEVILDCSDRLKAEECRLQTGRGCVASPVEGGRSEAPPSLVSFAVSSEGTEHGEDQRSGKDQSRPHKHRARHARLRRSESLSEKQVKEAKSKCKSIALLLTDAPNPNSKGVLMFKKRRRRARKYTLVSYGTGELEREEEEEEDQEAGDKDEISEVAFLGTSESEVDEELLSDVDDNTQVVNFDWDSGLVDIEKRLNRGDKMEMLPDTTGKGALMFAKRRERMEQFTAQNEEEKTGGMAGGGPDALQTDGLRTMTSYQRKEESVRMQSSVSESSFQMGRSLASVPQQNGFSGVSETAGAQRMFPMNRTAKPFLGSMNQPAAPFSPTRSVTSPISDFPAPPPYSAVSPPPEAFSRGVSSPVAGPAQPPPWPQPAPWSQPAFYDSSEQIASRDERIAVPAKRTGILQEAKRRGTTKPMFTFKETKVSPNPELLSLLQNAEGKRGTGGDSGPEEDYLSLGAEACNFMQSSAKQKTPPPVAPKPAVKSPSSSQPVAPVSPVWSPGVAPAQRPAFSTSNPPNPPQVTAVSSIKIAQPAAPPARPASALNLAGPFKGPQAVVVSHNYTPKPSAPTPLVNAAPAGAGGPSNELPGMSGKGAQLFAKRQSRMEKYVVDSDTVQAHTVRAQSPTPSLPASWKYSSNVRAPPPVAYNPIHSPSYPLAAIKSQPPGAQASKTSKKKGKKPLNTLDVMKHQPYQLNASLFTFQPPDSKDGLPQKSTVKVSSAPAMKQALPPRQANVGSPTNAQASSVYSVPAYTSQPNFFAAEATSPVSASPVPVSVPTSPKQESTSTSYFVAPRPKFSAKKSGVTVQVWKPSVVEE
B4: TJP2 (protein, UniProt Q9Z0U1 1-1167)
chain: MEEVIWEQYTVTLQKDSKRGFGIAVSGGRDNPHFENGETSIVISDVLPGGPADGLLQENDRVVMVNGTPMEDVLHSFAVQQLRKSGKIAAIVVKRPRKVQVAPLQGSPPLSHDDRGFEVIEEFDGRSFRSGYSERSRHSSHDMLSHSWEGNRERGRPHQRTQSRERERSRGRSLERGLDQEDYGRSRERSRGRSLERGLDRDFVSRDHSRGRSIDRDYDRDYERSYHEAYEPDYGGGYSPSYDRRAHPETRYERSRSREHLRSRSPSPESRSRHEHKGQHDPDRPIGVLLTKSKANEEYGLRLGSQIFIKEMTRTGLATKDGNLHEGDIILKINGTVTENMSLTDARKLIEKSRGKLQLVVLRDSKQTLINIPALNDSDSEVEDISEIESNRSFSPEERRQQYSDQDYHSSTEKLKERPSSREETSGRLSRMGATPTPFKSTGDITAAGVTEASREPRYQEEGPVPQPRTAPRVFLRPSPEDEAIYGPNTKMVRFKKGDSVGLRLAGGNDVGIFVAGIQEGTSAEQEGLQEGDQILKVNTQDFRGLVREDAVLYLLEIPKGETVTILAQSRADVYRDILACGRGDSFFIRSHFECEKETPQSLAFTRGEVFRVVDTLYDGKLGHWLAVRIGNELEKGLIPNKSRAEQMASVQNAQRENAGDRADFWRMRGQRSSGGVKKNLRKSREDLAAAVSVSTKFPAYEKVLLREAGFKRPVVLFGPIADIAMERLATELPDLFQTAKTEPKDAGSEKSSGVVRLNTVRQIIEQDKHALLDVTPKAVDLLNYTQWFPIVIFFNPDSRQGVKTIRQRLSPTSNKSSRKLFDQANKLKKTCSHLFTATINVNSANDGWFGSLKDSIQQQQNEAVWVSEGKMEGMDDDAEDRMSYLTAMGADYLSCDSRLISDFEDTDGEGGAYTDNELEEPAEEPLVSSITRSSEPVQHEENIRKSSPEPRAQMRRAASRDQLRDASPPPAFKPEPPKARSQNREDSFDYSKSNLPATAGSEIPGGSTKGYPPPIAAKPAFGRPILKPSTPVPMPESEEVGESTEEQEDAPRSVLGRVKIFEKMDHKAKLQRMQELQEAQNARIEIAQKHPDIYAVPIKAPKPDAGLPPHMSSRPPEPQKAPSRLYQDTRGSYGSDPEEEEYRQQLAAHSKRGYYSQPSRYRDTEL
B5: PDLIM3 (protein, UniProt O70209 1-316)
chain: MPQNVVLPGPAPWGFRLSGGIDFNQPLVITRITPGSKAAAANLCPGDVILAIDGFGTESMTHADAQDRIKAASYQLCLKIDRAETRLWSPQVSEDGKAHPFKINLEAEPQEFKPIGTAHNRRAQPFVAAANIDDKRQVVSASYNSPIGLYSTSNIQDALHGQLRGLIPGSLQNEPTASVPPQSDVYRMLHDNRDDPAAPRQSGSFRVLQDLVNDGPDDRPAGTRSVRAPVTKVHGGAGSAQRMPLCDKCGSGIVGAVVKARDKYRHPECFVCADCNLNLKQKGYFFVEGELYCETHARARTRPPEGYDTVTLYPKA

The target in the first experiment is Cdh2-BioID2 (mouse N-cadherin with BioID2-HA fused to the C-terminal tail) (mouse) (UniProt P15116). In words: proximity labelling.
With B1, the binding entry is “binds”.
Same read-out and setting: as for B2, the entry is “binds”; as for B3, “binds”.
On the same count and under the same terms, next, B4: “binds”; B5: “binds”.

For the next experiment the target is unchanged. In words: proximity labelling. The source holds these as a separate data set.
On to talin TLN2 (from UniProt Q71LX4 1-2375), for which the binding entry is given as “binds”.
Consider talin TLN1 (from UniProt P26039 1-2541), for which the binding entry is “binds”.
As to “Dishevelled Associated Activator of Morphogenesis 1 (DAAM1) (from UniProt Q8BPM0 1-1077)”, the binding result is “binds”.
Consider “Supervillin (SVIL) (from UniProt Q8K4L3 1-2170)”, for which the binding result is reported as “binds”.
Still for that read-out and setting: as for LDB3 (from UniProt Q9JKS4 1-723), the entry is “binds”.
The same measure, in the same setting: next, “afadin (AFDN) (from UniProt Q9QZQ1 1-1820)”: “binds”; “integrin ITGB1 (from UniProt P09055 21-798)”: “binds”; “αE-catenin (CTNNA1) (from UniProt P26231 1-906)”: “binds”.
The same measure, in the same setting: as for “vinculin (VCL) (from UniProt Q64727 1-1066)”, the entry is “binds”; as for “Cortactin (CTTN) (from UniProt Q60598 1-546)”, “binds”; as for “β-catenin (CTNNB1) (from UniProt Q02248 1-781)”, “binds”.
In the case of BAG3 (from UniProt Q9JLV1 1-577), the binding entry was “binds”.
